These results are taken from article PMC7250321.

No constants are given. Whether binding was seen depends on the method and setting. Binding seen in cells or lysates may run through a third protein. A result given as binding can be weak or reduced; the word gives no strength. Tags and fused reporters may be left off the sequences shown.

The experiment has as its target T1, Flag-tagged ACOX1 protein (acyl-CoA oxidase 1) (human) (UniProt Q15067).
T1 sequence: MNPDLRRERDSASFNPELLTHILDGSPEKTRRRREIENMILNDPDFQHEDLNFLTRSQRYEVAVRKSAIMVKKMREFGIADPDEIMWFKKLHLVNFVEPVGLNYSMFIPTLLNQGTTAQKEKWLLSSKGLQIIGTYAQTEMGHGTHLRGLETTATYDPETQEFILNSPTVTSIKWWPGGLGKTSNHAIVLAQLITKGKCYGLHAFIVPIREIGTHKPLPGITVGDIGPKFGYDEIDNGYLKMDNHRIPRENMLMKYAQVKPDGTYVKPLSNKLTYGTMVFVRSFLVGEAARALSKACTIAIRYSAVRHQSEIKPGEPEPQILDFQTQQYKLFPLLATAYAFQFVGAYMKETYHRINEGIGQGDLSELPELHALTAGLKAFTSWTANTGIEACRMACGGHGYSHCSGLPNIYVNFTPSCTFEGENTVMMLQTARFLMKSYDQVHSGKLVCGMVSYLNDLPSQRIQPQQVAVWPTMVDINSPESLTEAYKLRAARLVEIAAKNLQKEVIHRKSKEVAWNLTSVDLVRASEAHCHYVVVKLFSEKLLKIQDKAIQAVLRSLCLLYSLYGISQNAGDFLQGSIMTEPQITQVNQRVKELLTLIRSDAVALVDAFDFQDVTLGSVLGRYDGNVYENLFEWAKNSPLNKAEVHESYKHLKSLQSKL
The experiment can be described thus: co-IP; HEK293T cells co-transfected; IP lysis buffer (0.025 M Tris-HCl, 0.15 M NaCl, 1 mM EDTA, 1% NP-40, 5% glycerol, pH 7.4); IP with anti-Flag or anti-HA or control IgG overnight at 4°C, protein G agarose; Western blot. (In general: In western blotting, separated proteins are transferred to a membrane and probed.)

Consider “HA-tagged EV71 3D protein (enterovirus 71) (enzyme)”, for which the binding entry is given as “binds”.
